Values from PubChem BioAssay AID1259331 (Drosophila RNAi Screening Center, 2017)
Test: 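Genes whose knock-down changes cell survival under toxic zinc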 (primary screen). Cell system: Drosophila S2R+ cells. Reagent: long dsRNA against Drosophila genes. Duration: 5 days (4 days knock-down, then 1 day zinc). Challenge: zinc chloride at 15 mM final level for 1 day. Read-out: 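Total cellular ATP measured by luciferase luminescence as a viability proxy, turned into Z scores from three plate copies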. Direction: mean Z score: higher = more ATP than other wells, better survival under zinc; ATP luminescence: higher = more ATP, more viable cells. Rule for the call: 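Hit when the absolute Z score is greater than 1.5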. Calls: active = hit, ATP up or down; inactive = not a hit.
Here is one part, drawn at random, of about 3,100 reagents tested. 126 of them (4.1%) count as active. 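Calls are per reagent; zinc was so toxic that few knock-downs lowered ATP further, so most hits raise ATP.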 Raw values vary from plate to plate and are shown uncorrected. A plus sign joins genes that one reagent is predicted to hit. No sequences are given here. Not given: the amount of reagent.

| target gene | DRSC id | mean Z score | ATP luminescence, replicate 1 | ATP luminescence, replicate 2 | outcome |
| --- | --- | --- | --- | --- | --- |
| HisCl1 (Histamine-gated chloride channel subunit 1) | DRSC14945 | -0.508 | 40982 | 41222 | inactive |
| Or71a (Odorant receptor 71a) | DRSC11244 | -0.372 | 68572 | 54321 | inactive |
| Or71a (Odorant receptor 71a) | DRSC39566 | -0.412 | 56602 | 50789 | inactive |
| GrlHz (Gustatory receptor-like Holozoa) | DRSC04424 | -0.332 | 28845 | 29153 | inactive |
| GrlHz (Gustatory receptor-like Holozoa) | DRSC39675 | 1.35 | 78863 | 86582 | inactive |
| CG8323 | DRSC07149 | -0.116 | 64241 | 73323 | inactive |
| Tmep (Transmembrane endosomal protein) | DRSC08215 | -0.419 | 28639 | 28587 | inactive |
| Tmep (Transmembrane endosomal protein) | DRSC26652 | 2.8 | 1.04e5 | 91746 | active |
| Nckx30C | DRSC02686 | -0.53 | 42388 | 38016 | inactive |
| Nckx30C | DRSC02687 | -0.203 | 48972 | 41223 | inactive |
| Nckx30C | DRSC02688 | -0.513 | 69996 | 49726 | inactive |
| CG3792 | DRSC02725 | -0.172 | 48372 | 40433 | inactive |
| Proc-R (Proctolin receptor) | DRSC18410 | -0.598 | 56945 | 55303 | inactive |
| Proc-R (Proctolin receptor) | DRSC39733 | -0.619 | 50515 | 51972 | inactive |
| PK1-R (Pyrokinin 1 receptor) | DRSC16577 | -0.228 | 35699 | 53312 | inactive |
| Spg7 (Paraplegin) | DRSC18469 | -0.318 | 63427 | 58077 | inactive |
| Spg7 (Paraplegin) | DRSC39600 | -0.202 | 58454 | 56828 | inactive |
| CCAP-R (Crustacean cardioactive peptide receptor) | DRSC14891 | -0.142 | 42591 | 41668 | inactive |
| CCAP-R (Crustacean cardioactive peptide receptor) | DRSC15967 | -0.16 | 35050 | 53807 | inactive |
| CCAP-R (Crustacean cardioactive peptide receptor) | DRSC29494 | 0.202 | 63101 | 65948 | inactive |
| CG11437 | DRSC11659 | 0.0174 | 71333 | 62844 | inactive |
| CG17646 | DRSC00507 | 3.27 | 1.10e5 | 94027 | active |
| CG17646 | DRSC39859 | -0.0358 | 58368 | 62295 | inactive |
| mrva (minerva) | DRSC21842 | -0.0459 | 49246 | 47600 | inactive |
| mrva (minerva) | DRSC25508 | 0.679 | 63410 | 65880 | inactive |
| CG11162 | DRSC22538 | 0.118 | 50703 | 50892 | inactive |
| CG11162 | DRSC39680 | 0.164 | 64782 | 64674 | inactive |
| fj (four-jointed) | DRSC07619 | -0.179 | 69498 | 70287 | inactive |
| fj (four-jointed) | DRSC27535 | -0.973 | 56602 | 38308 | inactive |
| Or45a (Odorant receptor 45a) | DRSC07487 | -0.201 | 93170 | 70547 | inactive |
| Or45a (Odorant receptor 45a) | DRSC27527 | -0.333 | 47566 | 62913 | inactive |
| Gr59f (Gustatory receptor 59f) | DRSC04499 | -0.0597 | 49553 | 39130 | inactive |
| Gr59f (Gustatory receptor 59f) | DRSC27044 | -0.561 | 41325 | 55385 | inactive |
| Ir7d (Ionotropic receptor 7d) | DRSC18010 | -0.649 | 47874 | 62861 | inactive |
| MFS10 (Major Facilitator Superfamily Transporter 10) | DRSC19888 | -0.627 | 38816 | 38633 | inactive |
| MFS10 (Major Facilitator Superfamily Transporter 10) | DRSC26960 | -0.341 | 58797 | 46914 | inactive |
| Oatp33Ea (Organic anion transporting polypeptide 33Ea) | DRSC02859 | -0.234 | 50172 | 55848 | inactive |
| Oatp33Ea (Organic anion transporting polypeptide 33Ea) | DRSC26461 | 0.63 | 67114 | 69664 | inactive |
| Pex3 (Peroxin 3) | DRSC10731 | -0.164 | 31450 | 31266 | inactive |
| Gr89a (Gustatory receptor 89a) | DRSC15023 | 2.03 | 41690 | 86487 | active |
| Gr89a (Gustatory receptor 89a) | DRSC39468 | -0.281 | 49658 | 46177 | inactive |
| dnt (doughnut on 2) | DRSC25886 | -0.476 | 41119 | 53156 | inactive |
| dnt (doughnut on 2) | DRSC36749 | -0.591 | 43253 | 39233 | inactive |
| gny (garnysstan) | DRSC02810 | -0.448 | 48012 | 51904 | inactive |
| gny (garnysstan) | DRSC39750 | 0.0263 | 62244 | 56791 | inactive |
| Ret (Ret oncogene) | DRSC03409 | -0.299 | 25296 | 29707 | inactive |
| Ret (Ret oncogene) | DRSC03410 | 0.815 | 60238 | 51338 | inactive |
| Ret (Ret oncogene) | DRSC37019 | 0.966 | 61369 | 53533 | inactive |
| ppk5 (pickpocket 5) | DRSC11492 | -0.524 | 58711 | 55985 | inactive |
| ppk5 (pickpocket 5) | DRSC39548 | -0.474 | 55529 | 51629 | inactive |
| CG4168 | DRSC01447 | -0.248 | 40931 | 40022 | inactive |
| CG4168 | DRSC01933 | -0.332 | 47103 | 56256 | inactive |
| CG4168 | DRSC22789 | -0.102 | 50035 | 44085 | inactive |
| Or67d (Odorant receptor 67d) | DRSC10158 | 0.665 | 87594 | 70116 | inactive |
| Or67d (Odorant receptor 67d) | DRSC39518 | -0.22 | 53447 | 46554 | inactive |
| CG9458 | DRSC16495 | 0.251 | 37519 | 58335 | inactive |
| CG43672 + CG43673 | DRSC19452 | 0.308 | 66634 | 75776 | inactive |
| CG43672 + CG43673 | DRSC20108 | -0.14 | 59720 | 67818 | inactive |
| CG32669 | DRSC18864 | 0.0476 | 74445 | 74792 | inactive |
| PGAP3 (Post-GPI attachment to proteins 3) | DRSC04989 | -0.169 | 27302 | 33292 | inactive |
| PGAP3 (Post-GPI attachment to proteins 3) | DRSC39550 | -0.676 | 53841 | 49915 | inactive |
| CG31100 | DRSC14453 | 0.269 | 36542 | 60967 | inactive |
| CG31100 | DRSC14455 | 0.0354 | 39730 | 56191 | inactive |
| CG5853 | DRSC01103 | 0.00851 | 43039 | 40245 | inactive |
| CG5853 | DRSC02906 | -0.119 | 52007 | 57237 | inactive |
| CG7888 | DRSC10926 | -0.658 | 25759 | 29805 | inactive |
| CG7888 | DRSC39855 | -0.238 | 48423 | 57590 | inactive |
| CG14605 | DRSC12549 | 0.0169 | 75640 | 60238 | inactive |
| CG14605 | DRSC29195 | 0.0866 | 61181 | 64302 | inactive |
